PMC5432311
These are yes or no findings as the source states them, for the method shown. In cells and extracts the contact can be indirect. Some results given as binding are weak or reduced against the parent protein; the word gives no strength.

By UniProt entry, the sequences of proteins in these tests, tags left out. Residues count along the entry.
UniProt O14746: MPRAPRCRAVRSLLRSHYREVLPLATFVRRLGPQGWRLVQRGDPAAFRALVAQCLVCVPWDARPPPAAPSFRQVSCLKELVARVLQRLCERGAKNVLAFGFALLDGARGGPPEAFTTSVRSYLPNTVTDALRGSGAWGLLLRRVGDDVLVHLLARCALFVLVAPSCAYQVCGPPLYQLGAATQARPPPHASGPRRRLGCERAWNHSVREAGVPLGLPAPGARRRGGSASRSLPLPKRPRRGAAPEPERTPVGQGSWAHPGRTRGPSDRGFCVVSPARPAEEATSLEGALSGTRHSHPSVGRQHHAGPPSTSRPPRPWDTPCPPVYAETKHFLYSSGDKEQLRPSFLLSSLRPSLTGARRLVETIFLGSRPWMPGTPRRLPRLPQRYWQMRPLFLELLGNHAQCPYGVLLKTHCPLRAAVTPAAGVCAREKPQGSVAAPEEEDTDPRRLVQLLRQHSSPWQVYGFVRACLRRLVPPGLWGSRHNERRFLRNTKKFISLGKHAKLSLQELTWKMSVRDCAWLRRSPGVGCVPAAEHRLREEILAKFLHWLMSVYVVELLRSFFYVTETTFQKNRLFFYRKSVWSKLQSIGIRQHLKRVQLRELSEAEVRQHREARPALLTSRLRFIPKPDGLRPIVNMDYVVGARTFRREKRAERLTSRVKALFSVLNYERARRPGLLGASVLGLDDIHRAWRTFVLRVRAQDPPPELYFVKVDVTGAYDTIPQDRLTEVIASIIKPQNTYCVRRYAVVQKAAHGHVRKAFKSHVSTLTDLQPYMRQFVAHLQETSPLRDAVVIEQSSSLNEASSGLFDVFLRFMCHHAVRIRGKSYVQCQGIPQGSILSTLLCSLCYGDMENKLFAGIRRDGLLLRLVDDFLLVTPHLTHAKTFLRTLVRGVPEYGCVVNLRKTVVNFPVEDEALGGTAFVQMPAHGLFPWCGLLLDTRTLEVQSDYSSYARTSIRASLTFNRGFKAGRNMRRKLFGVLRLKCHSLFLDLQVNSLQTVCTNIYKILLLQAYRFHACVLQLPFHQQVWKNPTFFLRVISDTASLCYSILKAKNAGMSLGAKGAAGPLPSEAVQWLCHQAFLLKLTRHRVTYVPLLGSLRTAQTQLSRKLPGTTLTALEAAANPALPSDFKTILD
UniProt P19838, residues 1-433: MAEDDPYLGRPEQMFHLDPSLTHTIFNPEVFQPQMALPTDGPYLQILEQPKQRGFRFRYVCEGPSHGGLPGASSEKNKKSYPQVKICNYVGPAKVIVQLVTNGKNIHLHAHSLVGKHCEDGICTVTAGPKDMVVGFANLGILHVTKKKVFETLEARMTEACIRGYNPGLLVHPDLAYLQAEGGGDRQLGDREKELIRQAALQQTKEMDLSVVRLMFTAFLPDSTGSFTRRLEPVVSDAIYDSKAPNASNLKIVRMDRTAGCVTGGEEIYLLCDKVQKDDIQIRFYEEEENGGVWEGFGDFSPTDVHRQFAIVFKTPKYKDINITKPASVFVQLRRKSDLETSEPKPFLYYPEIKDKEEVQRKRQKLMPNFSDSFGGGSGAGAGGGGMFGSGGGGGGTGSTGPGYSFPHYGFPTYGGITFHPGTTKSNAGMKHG
UniProt Q04206: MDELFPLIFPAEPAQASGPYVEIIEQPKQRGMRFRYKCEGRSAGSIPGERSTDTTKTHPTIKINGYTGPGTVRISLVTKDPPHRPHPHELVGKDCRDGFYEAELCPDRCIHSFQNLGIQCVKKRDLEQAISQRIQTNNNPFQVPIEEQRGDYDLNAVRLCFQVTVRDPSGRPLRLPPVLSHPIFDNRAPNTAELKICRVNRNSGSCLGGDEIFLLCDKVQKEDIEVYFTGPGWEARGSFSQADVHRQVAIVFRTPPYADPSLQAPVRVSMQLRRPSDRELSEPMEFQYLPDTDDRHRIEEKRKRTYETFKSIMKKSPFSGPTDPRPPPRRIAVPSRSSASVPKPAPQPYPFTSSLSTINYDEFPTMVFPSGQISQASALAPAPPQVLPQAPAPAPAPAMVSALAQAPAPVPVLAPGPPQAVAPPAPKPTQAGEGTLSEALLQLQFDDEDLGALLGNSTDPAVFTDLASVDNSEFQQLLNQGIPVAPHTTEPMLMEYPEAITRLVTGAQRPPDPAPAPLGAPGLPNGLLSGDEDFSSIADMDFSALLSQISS

Molecular target: human telomerase reverse transcriptase (hTERT) (human) (UniProt O14746)
Assay: co-IP; MKN45 cell line; which protein was precipitated and which was blotted is not told; no Co-IP methods given

Substance | binding
p50 subunit of NF-κB (from UniProt P19838 1-433) | binds
p65 subunit of NF-κB (from UniProt Q04206 1-551) | binds
